Screening data

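A p53 response-element beta-lactamase reporter in HCT-116 cells, giving a fitted potency from the FRET ratio after 16 hours.
The concentration series mostly goes up to 66 µM.
Potency is the fitted concentration that gives half the maximal activation; a lower value means a more potent compound.
Calls are based on the whole dose curve, and inconclusive means weak or mixed curves.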

Values are in µM.
Every entry below has the call inconclusive.
Only part of the assay is shown, chiefly results filed as inconclusive.
Potencies fitted to partial, single-point or poorly fitting curves are rough.
Some entries filed as inconclusive have a full curve.
The first word of each remark tells which way the curve ran; it can be opposite to the aim of the assay.
An entry listed twice with the same setting is a separate test.

SMILES,fitted potency (µM),curve
O=C1C=CC(=O)N1c1ccccc1,51.34,-
O=C1CCCCCN1SSN1CCCCCC1=O,20.44,"rising, partial curve"
CCCCCCCCCCCC[N+](C)(C)C,10.24,fluorescent
O=S1(=O)OC(c2cc(Br)c(O)c(Br)c2)(c2cc(Br)c(O)c(Br)c2)c2ccccc21,47.06,"rising, single point"
CN(C)C(=S)SC(=S)N(C)C,1.821,"rising, full curve"
CC(C)=CCOc1ccc(/C=C/C(=O)c2ccc(OCC=C(C)C)cc2OCC(=O)O)cc1,12.57,"activator, single point"
Nc1cccc2c(N)cccc12,48.18,-
O=S(=O)(c1ccc(OCc2ccccc2)cc1)c1ccccc1O,14.47,"rising, partial curve"
IC(I)=C(I)I,5.76,"fluorescent, full curve"
CNC(=S)NC,40.78,"fluorescent, partial curve, poor fit"
CC1=C(/C=C/C(C)=C/C=C/C(C)=C\C=O)C(C)(C)CCC1,48.6,"rising, single point"
CCCCC(CC)COC(=O)c1ccc(O)cc1 (stereo not shown),51.34,single point
Fc1ccccc1[C@@H](F)COC1CCC(Nc2ncnc3[nH]ncc23)CC1 (stereo partly shown),6.463,"rising, partial curve"
BrC(Br)C(Br)(Br)Br,36.57,"rising, partial curve, poor fit"
CCCCCCCCCCCCOC(=O)c1cc(O)c(O)c(O)c1,36.34,-
Nc1ccc(Cl)cc1N,27.25,-
COc1ccc(C(Cl)=C(c2ccc(OC)cc2)c2ccc(OC)cc2)cc1,1.257,"falling, single point"
OC(c1ccc(Cl)cc1)(c1cncnc1)c1ccccc1Cl (stereo not shown),52.23,"rising, single point"
CCCC(=O)c1cc(O)c(O)cc1O,37.77,-
CC(C)(C)c1cc(/C=C2\SC(=N)NC2=O)cc(C(C)(C)C)c1O,16.23,"rising, partial curve"
Cc1ccc(C(=O)c2cc(O)c(O)c([N+](=O)[O-])c2)cc1,5.76,"rising, partial curve"
Nc1cc(Cl)c(-c2cc(Cl)c(N)cc2Cl)cc1Cl,16.23,"fluorescent, partial curve"
CC1COC(Cn2cncn2)(c2ccc(Oc3ccc(Cl)cc3)cc2Cl)O1 (stereo not shown),5.76,"fluorescent, full curve"
CCCCCCCC/C=C\CCCCCCCC(=O)O,18.22,"rising, partial curve, poor fit"
Cc1cc(C)c(C(=O)P(=O)(c2ccccc2)c2ccccc2)c(C)c1,45.75,"rising, single point"
CC(C)(C)CC(C)(C)c1ccc(OCCOCC[N+](C)(C)Cc2ccccc2)cc1,51.29,single point
O=[N+]([O-])c1ccc(Oc2ccc(C(F)(F)F)cc2[N+](=O)[O-])cc1,51.34,"rising, single point"
CC(C)OC(=O)C(O)(c1ccc(Cl)cc1)c1ccc(Cl)cc1,51.34,"falling, single point"
CN1CCN(CCC(=O)N2c3ccccc3Sc3ccc(C(F)(F)F)cc32)CC1,7.067,"rising, partial curve"
CCCCCCCCS(=O)C(C)Cc1ccc2c(c1)OCO2 (stereo not shown),52.37,"falling, partial curve, poor fit"
CCCCc1ccc2nc(NC(=O)OC)[nH]c2c1,0.0707,"activator, full curve"
CCCCC(O)(Cn1cncn1)c1ccc(Cl)cc1Cl (stereo not shown),16.23,"rising, partial curve"
Oc1cc(Cl)c(Cl)c(Cl)c1,43.42,"activator, partial curve, poor fit"
COC(=O)[C@H]1[C@H]2C[C@@H]3c4[nH]c5cc(OC)ccc5c4CCN3C[C@H]2C[C@@H](OC(=O)/C=C/c2ccc(O)c(OC)c2)[C@@H]1OC,1.41,"rising, full curve, poor fit"
COc1ccc(-c2nc3ccc(C4=NNC(=O)CC4C)cc3[nH]2)cc1 (stereo not shown),8.897,activator
Cc1ccc(N=CN(C)C=Nc2ccc(C)cc2C)c(C)c1,25.85,"rising, partial curve, poor fit"
Cc1nc(N)nc(N)c1-c1ccc(Cl)c(Cl)c1,6.299,"activator, full curve, poor fit"
C[C@]12CC[C@H]3[C@@H](CCC4=CC(=O)CC[C@@]43C)[C@@H]1CC[C@@H]2C(=O)CO,40.78,"rising, single point"
CCCCCCCCCCCCCCC(Br)C(=O)O (stereo not shown),36.34,"rising, partial curve"
CC[C@]1(O)C[C@H]2CN(CCc3c([nH]c4ccccc34)[C@@](C(=O)OC)(c3cc4c(cc3OC)N(C=O)[C@H]3[C@@](O)(C(=O)OC)[C@H](OC(C)=O)[C@]5(CC)C=CCN6CC[C@]43[C@@H]65)C2)C1,12.57,"rising, partial curve, poor fit"
CC1=C(/C=C/C(C)=C/C=C/C(C)=C/C(=O)O)C(C)(C)CCC1,32.35,"rising, partial curve, poor fit"
CCCCCCCCP(=O)(O)O,2.044,"rising, full curve, poor fit"
Nc1ccc(-c2ccc(N)c(Cl)c2)cc1Cl,15.16,"activator, partial curve"
CCCCCCCCOc1ccc(C(=O)O)cc1,8.046,-
COc1c(C)c2c(c(O)c1C/C=C(\C)CCC(=O)O)C(=O)OC2,0.1582,"activator, full curve"
CC1(C)[C@H](C(=O)O[C@H](C#N)c2cccc(Oc3ccccc3)c2)[C@@H]1/C=C(\Cl)C(F)(F)F,12.9,"rising, partial curve"
CCCCNC(=O)n1c(NC(=O)OC)nc2ccccc21,16.15,"fluorescent, full curve"
CCOP(=S)(OCC)Oc1cc(Cl)c(Br)cc1Cl,18.22,"rising, partial curve"
CN(C)CCCN1c2ccccc2CCc2ccc(Cl)cc21,9.129,"rising, full curve, poor fit"
On1ccccc1=S,22.7,"rising, partial curve"
CN1C(=O)[C@@H](NC(=O)c2cc3ccccc3[nH]2)N=C(c2ccccc2)c2ccccc21,4.459,"rising, full curve, poor fit"
Cc1ccccc1C(=O)Nc1ccc(C(=O)N2CCCC(N(C)C)c3ccccc32)cc1 (stereo not shown),8.897,"activator, full curve"
OCC(O)[C@@H](O)[C@H](O)[C@H](O)CO[C@H]1O[C@H](CO)[C@@H](O)[C@H](O)[C@H]1O (stereo partly shown),1.612,"activator, partial curve, poor fit"
CCCC(=O)OC[C@@H](OC(=O)CCC)[C@@H](OC(=O)CCC)[C@H](Cn1c2nc(=O)[nH]c(=O)c-2nc2cc(C)c(C)cc21)OC(=O)CCC,15.82,"rising, partial curve"
O=[N+]([O-])c1c2ccccc2cc2ccccc12,14.38,-
C[C@]12C/C(=C/O)C(=O)C[C@@H]1CC[C@@H]1[C@@H]2CC[C@@]2(C)[C@H]1CC[C@]2(C)O,24.05,fluorescent
CC(C(O)c1ccccc1)N(C)CCOC(c1ccccc1)c1ccccc1 (stereo not shown),2.814,"rising, partial curve"
CC[C@]1(O)C[C@@H]2CN(CCc3c([nH]c4ccccc34)[C@@](C(=O)OC)(c3cc4c(cc3OC)N(C)[C@H]3[C@@](O)(C(=O)OC)[C@H](OC(C)=O)[C@]5(CC)C=CCN6CC[C@]43[C@@H]65)C2)C1,11.2,"fluorescent, partial curve"
C=C(CC)C(=O)c1ccc(OCC(=O)O)c(Cl)c1Cl,25.08,"fluorescent, single point"
O=C(N/N=C/c1ccc([N+](=O)[O-])o1)c1ccc(O)cc1,22.35,activator
Cc1ccc2nc(N)[nH]c(=O)c2c1Sc1ccncc1,2.814,"activator, full curve"
CCN(CC)C(=O)c1cc(S(=O)(=O)Cc2ccccc2)c(N2CCC(c3ccccc3)CC2)cc1N(CC)CCN(C)C,16.05,"rising, single point"
CCCCCCOc1ccc(O)cc1,12.9,"activator, full curve"
O=[N+]([O-])c1ccc(O/N=C/c2cc(Br)c(O)c(Br)c2)c([N+](=O)[O-])c1,10.19,"fluorescent, full curve, poor fit"
O=S1OC[C@@H]2[C@H](CO1)[C@]1(Cl)C(Cl)=C(Cl)[C@@]2(Cl)C1(Cl)Cl (stereo partly shown),45.75,"rising, single point"
Oc1c(Cl)c(Cl)c(Cl)c(Cl)c1Cl,12.87,"activator, partial curve"
C#C[C@]1(OC(C)=O)CC[C@H]2[C@@H]3CCC4=C/C(=N/O)CC[C@@H]4[C@H]3CC[C@@]21CC,5.614,"rising, partial curve, poor fit"
Cc1cc2nc3c(=O)[nH]c(=O)nc-3n(C[C@H](O)[C@H](O)[C@H](O)CO)c2cc1C,25.48,"rising, partial curve, poor fit"
O=C(Nc1ccc([N+](=O)[O-])cc1Cl)c1cc(Cl)ccc1O,0.2573,"fluorescent, full curve, poor fit"
CCO/N=C(\CC)C1=C(O)CC(c2c(C)cc(C)cc2C)CC1=O (stereo not shown),36.33,-
O=C(c1ccccc1)c1ccc(O)cc1O,20.83,"rising, partial curve"
c1cc(OCC2CO2)cc(OCC2CO2)c1 (stereo not shown),50.94,"activator, single point"
Cc1cc(O)c2c(c1)C(=O)c1cc(O)cc(O)c1C2=O,6.463,"fluorescent, full curve"
CC(Cc1ccc(O)c(O)c1)C(C)Cc1ccc(O)c(O)c1 (stereo not shown),20.44,"rising, partial curve, poor fit"
O=C1C2(Cl)C3(Cl)C4(Cl)C(Cl)(Cl)C5(Cl)C3(Cl)C1(Cl)C5(Cl)C24Cl (stereo not shown),49.19,single point
CC(C)(C)c1cc(O)c(C(C)(C)C)cc1O,51.34,"rising, single point"
CCCCCCCCCCCCCCCC[N+](C)(C)CC,7.275,"fluorescent, partial curve, poor fit"
CC(C)(c1cc(Cl)c(O)c(Cl)c1)c1cc(Cl)c(O)c(Cl)c1,2.887,"fluorescent, full curve"
CC(C)(C)CC(C)(C)c1ccccc1O,46,"falling, single point"
C[C@H](CCC(=O)O)[C@H]1CC[C@H]2[C@@H]3CC[C@@H]4C[C@H](O)CC[C@]4(C)[C@H]3CC[C@]12C,16.23,"rising, partial curve"
CC(C)(c1cc(Br)c(OCCO)c(Br)c1)c1cc(Br)c(OCCO)c(Br)c1,5.019,"fluorescent, full curve, poor fit"
NC(=O)N(O)[C@@H]1C=C[C@H](Oc2cccc(Oc3ccc(F)cc3)c2)C1,16.23,-
CCC[CH2][Sn]([Cl])([CH2]CCC)[CH2]CCC,9.149,"falling, full curve"
COC(=O)C(C)Oc1ccc(Oc2ncc(C(F)(F)F)cc2Cl)cc1 (stereo not shown),46.36,"rising, single point"
CCCCN(CCCC)c1ccc(C(=O)c2ccccc2C(=O)O)c(O)c1,5.184,"rising, partial curve, poor fit"
c1cc[c]([Hg][c]2ccccc2)cc1,18.22,-
CCOC(=O)c1ccccc1C(=C1C=C(Br)C(=O)C(Br)=C1)c1cc(Br)c(O)c(Br)c1,38.4,"rising, single point"
Nc1ccccc1N,19.67,fluorescent
O=C1C2(Cl)C3(Cl)C4(Cl)C(Cl)(Cl)C5(Cl)C3(Cl)C1(Cl)C5(Cl)C24Cl (stereo not shown),49.06,-
CSc1ccc(/C=C2/C(C)=C(CC(=O)O)c3cc(F)ccc32)cc1,7.067,"rising, partial curve, poor fit"
Nc1cc([N+](=O)[O-])ccc1O,0.3616,"falling, full curve, poor fit"
COc1cc(-c2nc(NC(=O)c3cc4cc(C)cc(C)c4n3CC(=O)O)sc2CCC2CCCCC2)c(OC)cc1Cl,7.459,"falling, full curve"
NC(=O)N1C(=O)C(C(=O)c2cc(Cl)cs2)c2cc(F)c(Cl)cc21 (stereo not shown),20.44,"fluorescent, partial curve"
COc1cccc2c1C(=O)c1c(O)c3c(c(O)c1C2=O)C[C@@](O)(C(=O)CO)C[C@@H]3O[C@H]1C[C@H](N)[C@H](O)[C@H](C)O1,3.542,-
CCCCCCCCCCCCOC(=O)c1cc(O)c(O)c(O)c1,2.875,"fluorescent, full curve"

Data taken from PubChem BioAssay AID1963582, deposited by Tox21 (2024).